From PubChem BioAssay AID493014 (National Center for Advancing Translational Sciences (NCATS), 2011) come the findings set out here.

The nature of this test: qHTS Assay to Find Inhibitors of Chronic Active B-Cell Receptor Signaling. The following applies: ABC-DLBCL IkBa-CBG/CBR reporter, luminescence ratio (green luciferase fused to IkBa over red control in TMD8 lymphoma cells), 4 h. Summed up:
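TMD8 ABC-DLBCL cells carrying doxycycline-inducible green luciferase fused to IkappaBalpha plus unfused red luciferase were exposed to compounds (up to 46 uM) for 4 hrs at 37C. Activity came from the overlap-corrected green/red luminescence ratio.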
In general terms: Quantitative high-throughput screening tests each substance at several concentrations.

Setting [1] is: measured here: CBR red luminescence, cell number.
[2] abbreviates: measured here: IkBa-CBG green luminescence.

The list shows a part of the results. Shown are side measurements of this screen, not its main read-out; they come without a call. Most of these compounds were active or inconclusive in the main read-out, so they are no random draw. Potencies come from curve fits of mixed quality, noted in brackets.

Turning to `CC(=O)Nc1cc2c(cc1NC(=O)Cn1nc(-c3ccc4c(c3)OCCO4)ccc1=O)OCCO2`, the AC50 (in general, the concentration giving half of the maximal activity seen) under setting [1] is 0.58 µM [falling, partial curve].
For `CC12COC3(P(=O)(c4ccccc4)c4ccccc4)CC1CCC23CP(=O)(c1ccccc1)c1ccccc1` (configuration not stated), under setting [1], the AC50 is 15.8 µM [falling, single point].
For the compound `CCOC(=O)c1ccc(N2C(=O)CC(SCC(=O)Nc3ccc(S(N)(=O)=O)cc3)C2=O)cc1` (configuration not stated), under setting [1], the AC50 was 22.4 µM [falling, partial curve, poor fit].
Still for that read-out and setting: the figure for `O=C(CCCN1C(=O)/C(=C/c2ccccc2Cl)SC1=S)NNC(=O)c1ccncc1` is 1.12 µM [falling, full curve].
As to `COC(=O)c1ccsc1NC(=O)CS(=O)(=O)c1ccccc1`, the AC50 was 0.58 µM [falling, full curve, poor fit] under setting [1] and 25.9 µM [rising, partial curve, poor fit] under setting [2].
`COc1ccccc1NC(=O)c1ccc2nc(C)c(C)nc2c1`: the AC50 under setting [1] is 6.31 µM [falling, partial curve, poor fit].
With `COc1cc(C(=O)OC(C)CN2CCOCC2)cc(OC)c1OC` (configuration not stated), under setting [1], the AC50 was 12.6 µM [rising, partial curve, poor fit].
In the case of `O=C(NNC1=NS(=O)(=O)c2ccccc21)c1ccc([N+](=O)[O-])cc1`, the AC50 under setting [1] was 10 µM [falling, partial curve, poor fit].
Regarding `CCc1ccc(C(C)NC(=S)NCc2ccc(F)cc2)cc1` (configuration not stated), the AC50 under setting [1] was 35.5 µM [falling, single point].
Still for that read-out and setting: the figure for `CC(C)CCN1C(=O)c2ccc(C(=O)OCC(=O)N(CC(C)C)C3CCS(=O)(=O)C3)cc2C1=O` (configuration not stated) is 25.9 µM [falling, partial curve, poor fit]; for `O=C(NCCc1ccccc1)C1(c2ccccc2)CC1(Cl)Cl` (configuration not stated) it is 1.12 µM [rising, partial curve, poor fit].
For the compound `CCOC(=O)C1=C(O)/C(=C/c2cn(CC(=O)N3CCCC3)c3ccccc23)SC1=Nc1ccccc1`, under setting [1], the AC50 was 11.6 µM [rising, partial curve, poor fit].
On to `CCCc1n[nH]c2c1/C(=N\OCC)CC(C)(C)C2`, for which, under setting [1], the AC50 is 5.62 µM [falling, partial curve, poor fit].
With `O=c1[nH]c(NNC(=S)NC2CCCCC2)nc2c1C1(CCCC1)Cc1ccccc1-2`, the AC50 under setting [1] was 1.58 µM [falling, partial curve, poor fit].
Take `COc1ccc(OC)c(C(c2nnnn2C2CCCC2)N2CCc3ccccc3C2)c1` (configuration not stated): the AC50 under setting [1] is 23.1 µM [falling, single point].
The same measure, in the same setting: under `Cc1cccc2sc(NC(=O)CN(C)S(=O)(=O)c3cccs3)nc12` stands 2.59 µM [falling, full curve]; under `O=C(Nc1nc(-c2ccco2)cs1)c1ccccc1`, 8.91 µM [falling, partial curve, poor fit].
Consider `O=c1c2ccccc2nnn1-c1ccc(Br)cc1`, for which the AC50 under setting [1] is 14.1 µM [rising, partial curve, poor fit].
Turning to `CCS(=O)(=O)c1ccc(C(=O)N2CCN(c3nc4c(OC)ccc(C)c4s3)CC2)cc1`, under setting [1], the AC50 was 1 µM [rising, partial curve, poor fit].
Still for that read-out and setting: the figure for `Cc1ccc(NC(=O)CNC(=O)c2ccco2)nc1` is 3.98 µM [rising, single point]; for `O=C(/C=C/c1cc([N+](=O)[O-])ccc1OC(F)F)Nc1ccc(OC(F)F)cc1` it is 5.01 µM [rising, full curve, poor fit].
Take `Brc1ccc(-c2cnc3n2CCCC3)cc1`: the AC50 under setting [1] is 3.66 µM [rising, full curve].
As for `COc1ccc(C(=O)NCc2cn3cccc(C)c3n2)cc1OC`, the AC50 under setting [2] was 0.562 µM [rising, full curve, poor fit].
In the case of `C=CCn1c(=O)c2c(nc3n2CC(C)CN3CCc2ccccc2)n(C)c1=O` (configuration not stated), under setting [1], the AC50 was 7.08 µM [falling, partial curve].
For `O=C(c1ccc(NS(=O)(=O)c2ccc(Cl)c(Cl)c2)cc1)N1CCOCC1`, the AC50 under setting [1] is 32.6 µM [falling, single point].
`COc1cc([C@@H]2c3cc4c(cc3[C@H](O)[C@H]3COC(=O)[C@H]23)OCO4)cc(OC)c1OC`: the AC50 was 1.03 µM [rising, full curve] under setting [1] and 0.411 µM [falling, partial curve] under setting [2].
Turning to `O=c1nc(/C=C/c2ccccc2C(F)(F)F)cc(C(F)(F)F)[nH]1`, the AC50 under setting [1] is 4.47 µM [falling, full curve, poor fit].
`CCOc1ccccc1OCCCOc1ccc(C)cc1Cl`: the AC50 under setting [1] was 12.6 µM [rising, partial curve].
As to `CC(C)(C)c1cc(NC(=O)Nc2ccccc2OC(F)(F)F)no1`, the concentration at half-maximal activity (AC50) under setting [1] was 7.08 µM [rising, partial curve, poor fit].
Regarding `Cc1cc(C)nc(SCc2ccc(C(=O)N/N=C/c3ccncc3)cc2)n1`, the AC50 under setting [2] was 10 µM [falling, partial curve, poor fit].
As for `CSCCC(NC(=O)c1ccccc1Br)C(=O)NNC(=O)c1csc(N2CCOCC2)n1` (configuration not stated), under setting [1], the AC50 is 14.6 µM [rising, partial curve, poor fit].
As to `CS(=O)(=O)c1ccc2nc(NC(=O)c3cccs3)sc2c1`, under setting [1], the concentration at half-maximal activity (AC50) is 16.4 µM [falling, partial curve].
For `c1ccc(-n2ncc3c(NCCCN4CCOCC4)ncnc32)cc1`, under setting [1], the AC50 is 35.5 µM [falling, single point].
For the compound `O=C(N/N=C/c1cccc(OCc2ccccc2)c1)c1ccc(Br)o1`, under setting [1], the AC50 was 20 µM [falling, single point].
On the same count and under the same terms, under `O=C(CN(Cc1ccccc1)S(=O)(=O)c1ccccc1)NC1CC1` stands 23.1 µM [rising, single point].
For `Nc1nn(S(=O)(=O)c2cccc3nsnc23)cc1-c1ccc(Br)cc1`, under setting [1], the AC50 was 0.82 µM [falling, partial curve, poor fit].
For the compound `COc1cccc2cc(C(=O)Nc3cccnc3N3CCOCC3)c(=O)oc12`, the AC50 under setting [1] is 2.31 µM [rising, partial curve].
As for `Cc1cc(C)c(C(=O)/C=C/C=C/c2ccccc2)c(=O)[nH]1`, the AC50 reads like this: under setting [1], 29.1 µM [falling, single point]; under setting [2], 18.4 µM [falling, single point].
Consider `Cc1ccc(C(=O)OCC(=O)Nc2cc(C(C)(C)C)nn2-c2ccccc2)c(O)c1`, for which the AC50 under setting [1] is 18.4 µM [falling, single point].
As to `Cc1ccc(NC(=O)c2nc[nH]c2C(=O)N[C@@H](C)c2ccccc2)cc1`, under setting [1], the half-maximal activity concentration (AC50) is 0.1 µM [rising, full curve, poor fit].
Regarding `CC(C)C(=O)Nc1ccc(N2CCCC2)c(Cl)c1`, under setting [1], the half-maximal activity concentration (AC50) is 10 µM [rising, partial curve, poor fit].
As to `Cc1cc(=O)c(C(=O)Nc2cccc(N3CCCC3=O)c2)nn1-c1ccccc1Cl`, the AC50 under setting [1] is 16.4 µM [rising, single point] and the AC50 under setting [2] is 4.61 µM [falling, partial curve].
For the compound `CCCS(=O)(=O)c1c(S(=O)(=O)CCC)c2c(N)cccn2c1C(=O)c1ccc(Br)cc1`, the AC50 was 3.26 µM [falling, partial curve, poor fit] under setting [1] and 25.9 µM [rising, partial curve, poor fit] under setting [2].
With `CCC1Sc2ccccc2N(CC(=O)NC2CCCC2)C1=O` (configuration not stated), under setting [1], the AC50 was 0.103 µM [falling, full curve, poor fit].
As to `Nc1nc(SCc2ccc(Cl)c(Cl)c2)n[nH]1`, the AC50 under setting [1] is 16.4 µM [rising, partial curve, poor fit].
The same measure, in the same setting: the figure for `O=C(COC(=O)C(c1ccccc1)c1ccccc1)NCc1ccco1` is 35.5 µM [falling, single point]; for `COc1cc(OC)cc(C(=O)NCCCN2CCOCC2)c1` it is 29.1 µM [rising, partial curve, poor fit]; for `C/C=C/c1ccc(OCC(=O)Nc2cc(Cl)ccc2-n2cncn2)c(OC)c1` it is 1.46 µM [rising, full curve, poor fit].
Turning to `CN(C)c1cc(-c2ccc(Br)cc2)oc(=O)c1Cl`, the AC50 under setting [1] is 1.78 µM [rising, full curve, poor fit].
As to `O=C(COC(=O)C1CCCO1)Nc1cccc(C(F)(F)F)c1` (configuration not stated), under setting [1], the half-maximal activity concentration (AC50) was 6.51 µM [falling, single point].
As for `CCOC(=O)Nc1sc(C)c(C)c1C(=O)OCC`, under setting [1], the AC50 was 29.1 µM [rising, single point].
Regarding `O=C(CN(C(=O)CCC(=O)Nc1nccs1)c1ccccc1F)NCc1ccccc1`, the concentration at half-maximal activity (AC50) under setting [1] was 0.501 µM [falling, full curve, poor fit].
Still for that read-out and setting: under `CCOc1ccc(CC(=O)OCc2cc(=O)n3cc(Br)ccc3n2)cc1` stands 1 µM [rising, partial curve, poor fit]; under `COc1ccc(Br)cc1C(=O)Nc1ccc(C(=O)O)cc1`, 5.01 µM [falling, partial curve]; under `COc1ccccc1/C=C/C(=O)NNC(=O)c1cccs1`, 1 µM [falling, full curve].
For the compound `O=C(NC(=S)Nc1ccc2cn[nH]c2c1)c1ccccc1`, the concentration at half-maximal activity (AC50) under setting [1] was 11.2 µM [falling, partial curve].
Consider `Cc1ccc(SC(CC(=O)c2ccc(C(C)(C)C)cc2)C(=O)O)cc1` (configuration not stated), for which the AC50 by setting is: under setting [1], 10 µM [falling, partial curve, poor fit]; under setting [2], 31.6 µM [rising, single point].
In the case of `Cc1[nH]nc2c1C(c1ccco1)C(C#N)=C(N)O2` (configuration not stated), the concentration at half-maximal activity (AC50) under setting [1] was 7.94 µM [falling, partial curve, poor fit].
Same read-out and setting: under `CC(=O)Oc1ccc2ccccc2c1C(NC(=O)Cc1ccccc1)c1ccccc1Cl` (configuration not stated) stands 0.112 µM [falling, full curve, poor fit].
Turning to `NC(=O)c1ccc(N=Cc2ccc([N+](=O)[O-])s2)cc1`, under setting [1], the AC50 was 16.4 µM [falling, partial curve].
Consider `CC(C)OC(=O)Cn1c(=O)oc2ccccc21`, for which the AC50 under setting [1] is 2.06 µM [rising, partial curve, poor fit].
